No constants are given. Whether binding was seen depends on the method and setting. In cells and extracts the contact can be indirect. These calls come from enrichment with a bait or labelling near it, and not all partners need be listed. For some of these results: A no says only that the protein was not detected with the bait. Sequences can lack the tags named with a protein.
T1: SHH2-3xFLAG (A. thaliana) (UniProt Q8RWJ7)
T1 sequence: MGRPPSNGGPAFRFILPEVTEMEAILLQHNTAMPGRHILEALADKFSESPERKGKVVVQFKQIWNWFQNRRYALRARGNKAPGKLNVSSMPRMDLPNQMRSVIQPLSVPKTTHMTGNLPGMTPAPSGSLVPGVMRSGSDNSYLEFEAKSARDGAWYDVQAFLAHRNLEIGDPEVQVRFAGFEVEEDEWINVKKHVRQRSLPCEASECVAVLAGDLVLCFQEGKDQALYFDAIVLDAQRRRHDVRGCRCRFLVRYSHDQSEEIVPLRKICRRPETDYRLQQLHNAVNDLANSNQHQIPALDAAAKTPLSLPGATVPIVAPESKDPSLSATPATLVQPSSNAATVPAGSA

T2: TPF1-3xFLAG (A. thaliana) (UniProt F4J5R1)
T2 sequence: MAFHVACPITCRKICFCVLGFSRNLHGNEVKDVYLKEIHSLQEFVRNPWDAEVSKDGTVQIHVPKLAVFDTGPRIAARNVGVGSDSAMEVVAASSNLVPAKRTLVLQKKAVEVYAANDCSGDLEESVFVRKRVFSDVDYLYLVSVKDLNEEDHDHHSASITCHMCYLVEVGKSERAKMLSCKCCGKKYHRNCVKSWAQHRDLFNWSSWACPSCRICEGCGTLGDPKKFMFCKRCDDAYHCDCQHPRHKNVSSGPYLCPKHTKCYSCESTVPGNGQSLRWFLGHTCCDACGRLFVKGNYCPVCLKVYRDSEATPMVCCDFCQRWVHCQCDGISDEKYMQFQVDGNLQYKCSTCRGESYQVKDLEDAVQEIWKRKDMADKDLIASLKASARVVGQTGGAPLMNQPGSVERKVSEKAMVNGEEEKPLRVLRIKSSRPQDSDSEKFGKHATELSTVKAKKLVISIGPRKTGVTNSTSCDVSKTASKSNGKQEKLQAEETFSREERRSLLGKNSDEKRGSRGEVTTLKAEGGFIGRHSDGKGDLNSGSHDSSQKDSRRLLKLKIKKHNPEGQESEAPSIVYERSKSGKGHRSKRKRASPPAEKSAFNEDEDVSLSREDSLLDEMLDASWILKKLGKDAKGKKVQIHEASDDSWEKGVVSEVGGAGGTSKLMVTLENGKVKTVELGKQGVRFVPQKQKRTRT

B1: OPF2 (protein, UniProt Q5PNS0 1-482)
chain: MHYSQTSSFGGNHTEIAKIIHKFLQPRVKQYPLWNPPSREYMSRAMACQICEVTINEMDTLLICDACEKAYHLKCLQGNNMKGVPKSEWHCSRCVQAFNGKPFPPTYGRATRAVATTTAKMPFRAAGVLSSSAKKIGPMDIKANQQKPIVSTFSRLQNTGLVSGAATTSQFESASVNAKTTASAAKTTNIGSQGSKENVACGANSPAPVSLTETPNRTGIASTISVINNGLISKPLTPVGTMSSTSPLPVVNQLPVNATSNASPSTPITASLVAQAPTVTQNGDGSSTASGTADHSILNADITTQVHTLTVTSSSNSQQAVSHSEVAKATEDAAPLENVSECEKPSESTSHPDSLNDKTISENVQESSKDAKVDSEACQNHPTASPATVVPDQDSTITAAPSVTQEDSAFNTEKTPPQPLSVSSNYDSQTEKETPNVQDSVHNVPGDSEKGKGLNGLDDRHQEQPSEPEFYKSDSVKEENAA
B2: CHR23 (protein, UniProt F4K128 1-1064)
chain: MVKQLQEQEENDPVEKTKSLISALNYLSRDLLLPSHLYASVSSIYHASVSDLSPSPPLRGNSYTPNRGDLMSEFEDALLQQRLNYESGSRLAELKETRYKNRIHNRLSQLEGLPSNRGEDLQEKCLLELYGLKLQELQCRVRGEVSAEYWLRLNCADPERQLYDWGMMRLPRRMYGVGDSFVMEADDQFRNKRDAERLLRLEEEEKNLIETTQRKFFAEVLNAVREFQLQIQASHRRCKQRNDGVQAWHGKQRQRATRAEKLRIMALKSDDQEEYMKLAKESKNEKLTLFLEETNKIFVSLGAAVQRQKDAKLSENTKLLKGSESDLSDVDAPEDVLPAQDIEIIDSDNNDDSNDLLEGERQFNLAIHSIQEKVTKQPSLLQGGELRSYQLEGLQWMVSLYNNDYNGILADEMGLGKTIQTIALIAYLLESKDLHGPHLILAPKAVLPNWENEFALWAPSISAFLYDGSKEKRTEIRARIAGGKFNVLITHYDLIMRDKAFLKKIDWNYMIVDEGHRLKNHECALAKTLGTGYRIKRRLLLTGTPIQNSLQELWSLLNFLLPHIFNSIHNFEEWFNTPFAECGSASLTDEEELLIINRLHHVIRPFLLRRKKSEVEKFLPGKTQVILKCDMSAWQKLYYKQVTDVGRVGLHSGNGKSKSLQNLTMQLRKCCNHPYLFVGADYNMCKKPEIVRASGKFELLDRLLPKLKKAGHRILLFSQMTRLIDLLEIYLSLNDYMYLRLDGSTKTDQRGILLKQFNEPDSPYFMFLLSTRAGGLGLNLQTADTIIIFDSDWNPQMDQQAEDRAHRIGQKKEVRVFVLVSIGSIEEVILERAKQKMGIDAKVIQAGLFNTTSTAQDRREMLEEIMSKGTSSLGEDVPSEREINRLAARTEEEFWMFEQMDEERRKKENYKTRLMEEKEVPEWAYTSETQEDKTNAKNHFGSLTGKRKRKEAVYSDSLSDLQWMKAMESEDEDASKVSQKRKRTDTKTRMSNGSKAEAVLSESDEEKEEEEEERKEESGKESEEENEKPLHSWKTNKKKRSRYPVMTSSPNSRGKGSSKGSKRN

How the values were obtained:
[1] = target: T1, SHH2-3xFLAG (A. thaliana); test: affinity purification with mass spectrometry; anti-FLAG M2 magnetic beads on extracts of 8 g inflorescences of TPF1-3xFLAG or SHH2-3xFLAG transgenic A. thaliana lines, Col-0 as control; IP buffer 50 mM Tris pH 7.6, 150 mM NaCl, 5 mM MgCl2, 10% glycerol, 0.1% NP40; 3 h at 4 °C; eluted with 3xFLAG peptide; LC-MS/MS, LFQ by MaxQuant; two independent experiments with two lines each
[2] = target: T2, TPF1-3xFLAG (A. thaliana); test: as above

Row | binding [1] | binding [2] | Binder
1 | binds | no binding | B1
2 | binds | no binding | B2
